Publication PMC6677748
No constants are given. Whether binding was seen depends on the method and setting. For some assays here: Binding seen in cells or lysates may run through a third protein. Some entries that bind do so weakly or less than the wild type.

Sequences of proteins named here, by UniProt entry; tags and fusion partners are left off.
UniProt O06874: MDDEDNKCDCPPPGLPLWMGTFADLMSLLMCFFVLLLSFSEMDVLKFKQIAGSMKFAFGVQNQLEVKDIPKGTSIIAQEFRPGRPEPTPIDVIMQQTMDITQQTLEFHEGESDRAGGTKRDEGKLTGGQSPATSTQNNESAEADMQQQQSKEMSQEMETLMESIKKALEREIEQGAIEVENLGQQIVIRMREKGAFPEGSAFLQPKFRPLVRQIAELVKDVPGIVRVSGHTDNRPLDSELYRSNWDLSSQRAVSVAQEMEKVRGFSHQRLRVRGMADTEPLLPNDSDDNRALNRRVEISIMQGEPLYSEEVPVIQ

Experiments:
[1] = biological target: PomB with His6-tag at the C-terminus (wild type), subunit B of the Na+-driven flagellar stator complex of Vibrio alginolyticus (V. alginolyticus) (UniProt O06874); assay: co-purification (metal affinity, then SEC); PomA and PomB-His6 overexpressed together in E. coli; membrane fraction solubilised with 0.5% DMNG; TALON resin by the His6 tag of PomB, eluted with 200 mM imidazole, then Enrich SEC 650 column in DMNG; peak fractions checked by SDS-PAGE; sample used for ATR-FTIR
[2] = biological target: PomB with His6-tag at the C-terminus (wild type), subunit B of the Na+-driven flagellar stator complex of Vibrio alginolyticus (V. alginolyticus) (UniProt O06874); assay: pull-down; PomA and PomB-His6 co-expressed in E. coli; membrane fraction solubilised with 0.5% DMNG; PomB-His6 held on Ni-NTA agarose at room temperature in 50 mM sodium phosphate pH 8.0, 200 mM NaCl, 10 mM imidazole, 0.05% DMNG; eluted with 400 mM imidazole; Western blot with anti-PomA and anti-PomB antibodies

PomA (wild type), subunit A of the Na+-driven flagellar stator complex of Vibrio alginolyticus (from UniProt O06873 1-253)
binding [1]: binds | binding [2]: binds
